Test results: article PMC7378745
Results are given in words; binding and its absence hold for the method and conditions named. For part of these data: Binding seen in cells or lysates may run through a third protein. Some binding calls cover weakened binding; strength is not graded here. For part of these data: Sequences can lack the tags named with a protein.

Protein sequences, listed by entry. Tags and fused reporters are not part of them. Lines headed by an entry give the natural chain unless they say otherwise; changes in a name come on top. Chains listed by the source or under a name are the forms on record and can include a tag or linker. Residues count along the entry.
WT mouse CD28 fused at the C-terminus to CER or monomeric YFP (P31041, residues 20-218): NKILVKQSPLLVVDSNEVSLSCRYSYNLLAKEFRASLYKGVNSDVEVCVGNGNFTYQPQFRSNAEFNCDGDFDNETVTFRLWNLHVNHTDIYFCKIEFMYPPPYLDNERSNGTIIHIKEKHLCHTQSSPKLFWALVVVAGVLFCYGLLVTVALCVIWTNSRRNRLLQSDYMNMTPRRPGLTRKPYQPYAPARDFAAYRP
C123S mouse CD28 fused at the C-terminus to CER or monomeric YFP (P31041, form named): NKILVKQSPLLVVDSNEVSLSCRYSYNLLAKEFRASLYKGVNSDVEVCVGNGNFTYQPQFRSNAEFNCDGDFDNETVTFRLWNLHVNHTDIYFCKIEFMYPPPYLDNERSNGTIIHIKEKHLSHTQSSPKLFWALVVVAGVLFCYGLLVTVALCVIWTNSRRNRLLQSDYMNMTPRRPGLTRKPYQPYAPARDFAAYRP
YT/LL (Y145L/T150L) mouse CD28 fused at the C-terminus to CER or monomeric YFP (P31041, form named): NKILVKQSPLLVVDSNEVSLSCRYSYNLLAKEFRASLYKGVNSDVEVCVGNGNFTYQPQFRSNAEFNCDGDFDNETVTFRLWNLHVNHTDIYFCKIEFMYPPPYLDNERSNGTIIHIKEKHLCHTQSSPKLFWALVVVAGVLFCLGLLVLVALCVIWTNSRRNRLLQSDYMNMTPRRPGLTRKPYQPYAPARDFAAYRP

How the values were obtained:
[1] = target: C123S mouse CD28 fused at the C-terminus to CER or monomeric YFP (mouse) (UniProt P31041); test: FRET or BRET; intermolecular FRET by flow cytometry (LSRII): sensitised emission of YFP after excitation of CER at 405 nm; CER and YFP fusions co-expressed by sequential retroviral transduction in CD28-negative DO11.10 T cell hybridomas
[2] = target: WT mouse CD28 fused at the C-terminus to CER or monomeric YFP (mouse) (UniProt P31041); test: as above
[3] = target: YT/LL (Y145L/T150L) mouse CD28 fused at the C-terminus to CER or monomeric YFP (mouse) (UniProt P31041); test: as above
[4] = target: wild type (WT) GpA TM domain in the ToxLuc construct (ToxR-TM-MBP); test: ToxLuc (ToxR transcription reporter of TM dimerisation in E. coli); TM domain inserted between ToxR and MBP; dimerisation activates ToxR and induces luciferase; lysates of E. coli NT326 assayed with ONE-Glo luciferase
[5] = target: WT human CD28 TM domain in the ToxLuc construct (ToxR-TM-MBP) (human); test: as above
[6] = target: WT mouse CD28 TM domain in the ToxLuc construct (ToxR-TM-MBP) (mouse); test: as above

Molecule: C123S mouse CD28 fused at the C-terminus to CER or monomeric YFP (from UniProt P31041 20-218) (receptor)
- binding [1]: binds

Molecule: WT mouse CD28 fused at the C-terminus to CER or monomeric YFP (from UniProt P31041 20-218) (receptor)
- binding [2]: binds

Molecule: YT/LL (Y145L/T150L) mouse CD28 fused at the C-terminus to CER or monomeric YFP (from UniProt P31041 20-218) (receptor)
- binding [3]: binds

Molecule: LIIFGVMAGVIGT (domain or fragment) [wild type (WT) GpA TM domain in the ToxLuc construct (ToxR-TM-MBP)]
- binding [4]: binds

Molecule: VLVVVGGVLACYSLLVTVAFIIF (domain or fragment) [WT human CD28 TM domain in the ToxLuc construct (ToxR-TM-MBP)]
- binding [5]: binds

Molecule: FWALVVVAGVLFCYGLLVTVALCVIWT (domain or fragment) [WT mouse CD28 TM domain in the ToxLuc construct (ToxR-TM-MBP)]
- binding [6]: binds
